Measured values: PubChem BioAssay AID1487 (National Center for Advancing Translational Sciences (NCATS), 2009)
The other results are listed elsewhere or left out. Shown are side measurements of this screen, not its main read-out; they come without a call. Compounds called inactive in the main read-out are mostly missing here. Potencies come from curve fits of mixed quality, noted in brackets.

Assay: qHTS Assay for Modulators of Lamin A Splicing
Conditions: HeLa LMNA splicing GFP/RFP minigene ratio, 48 h
Procedure, shortened: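 S3 HeLa stable clones carrying a lamin A-EGFP splicing minigene plus DsRed2 were seeded at 600 cells/well in Opti-MEM with 2% FBS, pin-dosed and incubated 48 h at 37°C. Acumen cytometry (488 nm) gave the GFP/RFP total-intensity ratio.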

[1] = measured here: GFP splicing reporter channel
[2] = measured here: RFP viability control channel

## COC(=O)Nc1nc2ccc(-c3n[nH]c(=O)c4ccccc34)cc2[nH]1
[1]
  AC50: 35.5 µM [rising, single point]
[2]
  AC50: 35.5 µM [rising, single point]

## Cc1ccc(C2=NN(C)c3nc4ccccc4n3C2)cc1
[2]
  AC50: 12.6 µM [rising, single point]

## O=C(Nc1ccc2ccccc2c1)/C(=C\c1ccc2c(c1)OCO2)NC(=O)c1ccco1
[2]
  AC50: 12.6 µM [rising, single point]

## Cc1ccccc1C(=O)N1CCN(c2ccc([N+](=O)[O-])c(NCc3cccnc3)c2)CC1
[2]
  AC50: 7.08 µM [rising, partial curve, poor fit]

## Cc1ccc(C2Nc3ccccc3NC3=C2C(=O)OC(C)C3)cc1 (configuration not stated)
[2]
  AC50: 0.0631 µM [falling, partial curve, poor fit]

## CN1CCc2nc(SCC(=O)Nc3ccc(OC(F)(F)F)cc3)c(C#N)c(-c3cccs3)c2C1
[1]
  AC50: 0.00891 µM [rising, full curve]
[2]
  AC50: 0.00708 µM [rising, full curve]

## CCOC(=O)c1c(CSC(=N)N)n(-c2ccc(C)cc2)c2cc(Br)c(OC(C)=O)cc12
[1]
  AC50: 35.5 µM [falling, single point]
[2]
  AC50: 25.1 µM [falling, single point]

## O=C(NC1CC(=O)N(c2cccc(F)c2)C1)C1CCCCC1 (configuration not stated)
[1]
  AC50: 11.2 µM [falling, partial curve, poor fit]
[2]
  AC50: 35.5 µM [falling, single point]

## CC1CN(Cc2c(O)ccc3c(=O)c(-c4ccccc4)coc23)CC(C)O1 (configuration not stated)
[1]
  AC50: 0.141 µM [rising, full curve, poor fit]

## O=C(CSc1ccccc1)N(c1ccc(Br)cc1)c1nccs1
[2]
  AC50: 35.5 µM [rising, single point]

## CCCN1C(=O)CN(C2CCCCCC2)C(=O)C1c1ccc(OCC)c(OC)c1 (configuration not stated)
[1]
  AC50: 0.0251 µM [falling, full curve]

## COC(=O)c1cc(NC(=O)c2cccc(Cl)c2)c(=O)oc1/C=C/Nc1cc(C)cc(C)c1
[1]
  AC50: 1.78 µM [rising, full curve]

## COc1cccc(-c2cc(C(F)(F)F)n3nc(C(=O)Nc4c(C)n(C)n(-c5ccccc5)c4=O)cc3n2)c1
[1]
  AC50: 35.5 µM [falling, partial curve, poor fit]

## Cc1ccccc1NC(=O)CN(C)S(=O)(=O)c1cccc2nsnc12
[2]
  AC50: 10 µM [falling, partial curve, poor fit]

## O=S(=O)(/C=C/c1ccccc1)Oc1ccccc1
[1]
  AC50: 35.5 µM [falling, single point]

## CCOC(=O)c1cnn(CCOC(=O)C2CC2)c1NC(=O)C1CC1
[1]
  AC50: 3.55 µM [falling, partial curve]

## Nc1nc2nccc(-c3cccnc3)n2n1
[1]
  AC50: 0.708 µM [rising, full curve, poor fit]

## CCOC(=O)c1c(NC(=O)CN2CCCCC2)sc(C)c1C
[1]
  AC50: 28.2 µM [rising, partial curve, poor fit]
[2]
  AC50: 35.5 µM [rising, single point]

## Cc1ccc(C(=O)N2CCN(c3ccccc3F)CC2)cc1NC(=O)c1nsc2ccccc12
[1]
  AC50: 3.16 µM [rising, single point]

## COc1ccc(Cl)cc1N(CC(=O)NC(C)(C)C)S(=O)(=O)c1ccc(C)c([N+](=O)[O-])c1
[2]
  AC50: 22.4 µM [rising, single point]

## COc1ccccc1CNc1nc(-c2ccco2)nn1S(=O)(=O)c1ccc(Cl)cc1
[1]
  AC50: 0.794 µM [rising, partial curve]
[2]
  AC50: 28.2 µM [rising, single point]

## CCOc1ccc(N(CC(=O)Nc2ccc(F)c(F)c2)S(=O)(=O)c2c(C)noc2C)cc1
[1]
  AC50: 10 µM [rising, partial curve, poor fit]
[2]
  AC50: 12.6 µM [rising, partial curve, poor fit]

## Cc1ccc(-c2nnn(CC(=O)NC3CC4CCC3C4)n2)cc1 (configuration not stated)
[1]
  AC50: 35.5 µM [rising, single point]
[2]
  AC50: 22.4 µM [rising, single point]

## CC(=O)c1cccc(NC(=S)NC(=O)c2ccc(Cl)cc2)c1
[2]
  AC50: 35.5 µM [rising, single point]

## CCn1cnc2c1c(=O)n(Cc1csc(-c3ccccc3)n1)c(=O)n2Cc1ccccc1
[1]
  AC50: 12.6 µM [rising, single point]
[2]
  AC50: 20 µM [rising, single point]

## Cc1ccccc1NC(=O)CSc1nc2ccc(NC(=O)COc3ccccc3F)cc2s1
[1]
  AC50: 15.8 µM [falling, partial curve]
[2]
  AC50: 12.6 µM [falling, partial curve]

## COc1cc(-n2c(=O)c3ccccc3n(CC(=O)c3ccc(Br)cc3)c2=O)cc(OC)c1OC
[2]
  AC50: 5.01 µM [falling, full curve, poor fit]

## Clc1ccc(-c2c[n+](Cc3ccc(Cl)c(Cl)c3)c3n2CCC3)cc1
[2]
  AC50: 22.4 µM [rising, single point]

## CCOc1cc(/C=N/O)cc(Br)c1OCC(=O)NCc1ccccc1
[2]
  AC50: 31.6 µM [rising, single point]

## Cc1ccc(NC(=O)CSc2n[nH]c(-c3ccncc3)n2)cc1
[1]
  AC50: 1.78 µM [rising, full curve, poor fit]

## CCC(=O)N1c2ccc(S(=O)(=O)CCC(=O)N3CCn4c3nc3ccccc34)cc2CC1C (configuration not stated)
[1]
  AC50: 6.31 µM [falling, single point]
[2]
  AC50: 0.355 µM [falling, partial curve]

## CCOC(=O)CCn1nc(-c2ccc(Cl)cc2)cc1N
[2]
  AC50: 35.5 µM [falling, single point]

## CCSc1nc(=S)cc(C)[nH]1
[1]
  AC50: 0.0178 µM [falling, full curve, poor fit]
[2]
  AC50: 0.02 µM [falling, full curve, poor fit]

## O=C(c1ccc(C#CC2(O)CCCCC2)cc1)N1CCN(C(c2ccccc2)c2ccccc2)CC1
[1]
  AC50: 15.8 µM [rising, single point]
[2]
  AC50: 20 µM [rising, single point]
